Taken from: PubChem BioAssay AID1259254 (NCATS, 2017)
Assay: 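Gene knock-downs that lead to re-replication, shown by excess G2 DNA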 (primary screen). Cell system: human HCT116 colorectal cancer cells. Reagent: single siRNA against human genes. Time to read-out: 3 days. Read-out: 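Nuclei stained with Hoechst and imaged; cell-cycle phase assigned by DNA content; G2 share scaled per plate, non-targeting siRNA 0%, GMNN siRNA 100%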. Reading the numbers: G2 robust z-score and G2 cells, % of GMNN control: higher = more G2 cells, more excess DNA replication; raw share of cells in G2: higher = larger share of cells with G2 DNA content. Hit rule: 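An siRNA counts as active if its G2 robust z-score lies at least 5 MADs above the screen median; here such calls match roughly 38% of GMNN control or more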.
Here is a random part of about 59,000 deposited reagents. Over the whole deposit, about 1,550 (2.6%) got an active call. 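G2 share is only a proxy for re-replication; each gene was hit by three separate siRNAs, and active genes were retested.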 Raw values vary from plate to plate and are shown uncorrected. The numbers tell different reagents against one gene apart. Reagent sequences are not shown. The record does not give: the amount of reagent.

no.	Gene	reagent	G2 robust z-score	G2 cells, % of GMNN control	raw share of cells in G2 (%)	Call
1	COL22A1 (collagen type XXII alpha 1 chain)	1	-0.00126	2.96	4.11	inactive
2	COL22A1 (collagen type XXII alpha 1 chain)	2	7.25	54	21.9	active
3	COL22A1 (collagen type XXII alpha 1 chain)	3	1.13	10.9	7.35	inactive
4	MYO3B (myosin IIIB)	1	4.97	38	24.1	inactive
5	MYO3B (myosin IIIB)	2	-0.265	1.1	5.11	inactive
6	MYO3B (myosin IIIB)	3	0.68	7.75	7.96	inactive
7	PIK3R2 (phosphoinositide-3-kinase regulatory subunit 2)	1	1.55	13.9	9.31	inactive
8	PIK3R2 (phosphoinositide-3-kinase regulatory subunit 2)	2	0.026	3.15	4.44	inactive
9	PIK3R2 (phosphoinositide-3-kinase regulatory subunit 2)	3	1.26	11.9	7.88	inactive
10	ETFA (electron transfer flavoprotein subunit alpha)	1	-0.475	-0.376	3.52	inactive
11	ETFA (electron transfer flavoprotein subunit alpha)	2	1.38	12.7	10.1	inactive
12	ETFA (electron transfer flavoprotein subunit alpha)	3	3.29	26.1	14.7	inactive
13	RNF14 (ring finger protein 14)	1	0.897	9.28	6.37	inactive
14	RNF14 (ring finger protein 14)	2	2.37	19.7	12.6	inactive
15	RNF14 (ring finger protein 14)	3	0.313	5.17	6.85	inactive
16	ZNF322P1 (zinc finger protein 322 pseudogene 1)	1	1.16	11.2	6.93	inactive
17	ZNF322P1 (zinc finger protein 322 pseudogene 1)	2	-0.617	-1.37	2.69	inactive
18	ZNF322P1 (zinc finger protein 322 pseudogene 1)	3	2.3	19.1	10.2	inactive
19	TMEM270 (transmembrane protein 270)	1	-0.272	1.05	3.42	inactive
20	TMEM270 (transmembrane protein 270)	2	-1.2	-5.5	2.19	inactive
21	TMEM270 (transmembrane protein 270)	3	2.38	19.7	10.1	inactive
22	STYXL2 (serine/threonine/tyrosine interacting like 2)	1	-1	-4.09	3.77	inactive
23	STYXL2 (serine/threonine/tyrosine interacting like 2)	2	2.34	19.4	13.3	inactive
24	STYXL2 (serine/threonine/tyrosine interacting like 2)	3	-0.0152	2.86	5.56	inactive
25	ASPM (assembly factor for spindle microtubules)	1	0.365	5.54	4.95	inactive
26	ASPM (assembly factor for spindle microtubules)	2	-0.142	1.97	4.36	inactive
27	ASPM (assembly factor for spindle microtubules)	3	-0.159	1.85	3.76	inactive
28	NIPAL2 (NIPA like domain containing 2)	1	-0.886	-3.27	3.09	inactive
29	NIPAL2 (NIPA like domain containing 2)	2	0.878	9.14	8.3	inactive
30	NIPAL2 (NIPA like domain containing 2)	3	6.6	49.4	15.9	active
31	POFUT2 (protein O-fucosyltransferase 2)	1	-0.549	-0.898	3.85	inactive
32	POFUT2 (protein O-fucosyltransferase 2)	2	4.78	36.6	21	inactive
33	POFUT2 (protein O-fucosyltransferase 2)	3	-0.477	-0.391	3.73	inactive
34	CKS2 (CDC28 protein kinase regulatory subunit 2)	1	0.237	4.64	6.62	inactive
35	CKS2 (CDC28 protein kinase regulatory subunit 2)	2	-0.656	-1.65	4.39	inactive
36	CKS2 (CDC28 protein kinase regulatory subunit 2)	3	0.211	4.45	5.63	inactive
37	NUFIP2 (nuclear FMR1 interacting protein 2)	1	-0.472	-0.353	4.21	inactive
38	NUFIP2 (nuclear FMR1 interacting protein 2)	2	-0.819	-2.79	3.12	inactive
39	NUFIP2 (nuclear FMR1 interacting protein 2)	3	1.62	14.3	7.57	inactive
40	SGIP1 (SH3GL interacting endocytic adaptor 1)	1	1.5	13.5	6.5	inactive
41	SGIP1 (SH3GL interacting endocytic adaptor 1)	2	-0.544	-0.859	3.82	inactive
42	SGIP1 (SH3GL interacting endocytic adaptor 1)	3	0.73	8.1	5.86	inactive
43	ITPR1 (inositol 1,4,5-trisphosphate receptor type 1)	1	1.94	16.6	11.3	inactive
44	ITPR1 (inositol 1,4,5-trisphosphate receptor type 1)	2	0.608	7.24	7.23	inactive
45	ITPR1 (inositol 1,4,5-trisphosphate receptor type 1)	3	2.65	21.6	12.8	inactive
46	FXYD3 (FXYD domain containing ion transport regulator 3)	1	1.79	15.6	11	inactive
47	FXYD3 (FXYD domain containing ion transport regulator 3)	2	0.261	4.81	6.41	inactive
48	FXYD3 (FXYD domain containing ion transport regulator 3)	3	-0.278	1.01	4.77	inactive
49	PARPBP (PARP1 binding protein)	1	1.18	11.2	8.84	inactive
50	PARPBP (PARP1 binding protein)	2	4.32	33.4	18	inactive
51	PARPBP (PARP1 binding protein)	3	-0.463	-0.287	3.05	inactive
52	CIPC (CLOCK interacting pacemaker)	1	0.348	5.41	6.38	inactive
53	CIPC (CLOCK interacting pacemaker)	2	0.637	7.45	5.34	inactive
54	CIPC (CLOCK interacting pacemaker)	3	-0.721	-2.1	2.26	inactive
55	PTP4A2 (protein tyrosine phosphatase 4A2)	1	4.55	35	16.2	inactive
56	PTP4A2 (protein tyrosine phosphatase 4A2)	2	0.275	4.9	5.78	inactive
57	PTP4A2 (protein tyrosine phosphatase 4A2)	3	-0.767	-2.43	2.77	inactive
58	PAGE1 (PAGE family member 1)	1	-0.0956	2.29	6.15	inactive
59	PAGE1 (PAGE family member 1)	2	5.23	39.8	19.7	active
60	PAGE1 (PAGE family member 1)	3	0.512	6.57	5.67	inactive
61	MDH1B (malate dehydrogenase 1B)	1	1.31	12.2	9.17	inactive
62	MDH1B (malate dehydrogenase 1B)	2	-0.176	1.73	6.78	inactive
63	MDH1B (malate dehydrogenase 1B)	3	0.285	4.97	6.79	inactive
64	LEMD2 (LEM domain nuclear envelope protein 2)	1	-0.543	-0.854	3.27	inactive
65	LEMD2 (LEM domain nuclear envelope protein 2)	2	0.472	6.29	5.28	inactive
66	LEMD2 (LEM domain nuclear envelope protein 2)	3	-0.235	1.32	3.61	inactive
67	DBI (diazepam binding inhibitor, acyl-CoA binding protein)	1	-0.806	-2.7	3.17	inactive
68	DBI (diazepam binding inhibitor, acyl-CoA binding protein)	2	0.818	8.72	8.07	inactive
69	DBI (diazepam binding inhibitor, acyl-CoA binding protein)	3	0.822	8.75	8.19	inactive

As entered above:
RNF14 (ring finger protein 14) #1, Call → inactive
Entry for TMEM270 (transmembrane protein 270) #1 under “raw share of cells in G2 (%)”: 3.42
Result of MYO3B (myosin IIIB) #3 in “raw share of cells in G2 (%)”: 7.96
Entry for CIPC (CLOCK interacting pacemaker) #3 in “raw share of cells in G2 (%)”: 2.26
Under “raw share of cells in G2 (%)”, PAGE1 (PAGE family member 1) #3 shows 5.67
Under “Call”, TMEM270 (transmembrane protein 270) #3 shows inactive
